Where two headings read alike, the source gives them in different places.

One assay has as its system RB1^del G401 cells. Briefly: Cell viability (CellTiter-Glo), G401 RB1^del clones E1 and F2. Type of assay: cell-based. Conditions: Homo sapiens, G-401, 96 h. As for the experimental part:
G401 cells with RB1 mutations were engineered by Synthego. […] Ribonucleprotein containing spCas9 and sgRNA was transfected into G401 cells by electroporation. […] The cells were then single-cell cloned and re-verified by Sanger sequencing.
Drug and media were replaced on Days 4, 7, and 11. […] CellTiter-Glo reagent was freshly reconstituted on the day of measurement and added in a 1:1 proportion to cell media. […] Cell line doubling time was determined by measuring cell viability every 24 hours over the course of 4 days, and fitting the cell viability to a two-parameter exponential curve. […] After the addition of cells, drugs were added using a pin tool (stainless steel pins with 50 nL slots, V&P Scientific) mounted onto a liquid handling robot (CyBio Well vario, Analytik Jena). For analysis of synergy, we used the synergyFinder package (2). Outliers due to pinning errors were excluded after manual examination.

In a further assay the test system is RB1^WT G401 cells. Nature of the assay: Cell viability (CellTiter-Glo) dose response, G401 RB1^WT. The format is cell-based. Conditions: Homo sapiens, G-401, 96 h, read-out: half-maximal effective concentration. As for the experimental part: Drug and media were replaced on Days 4, 7, and 11. CellTiter-Glo assays were performed on Day 14, with luminescence readings taken using an automated fluorescence plate reader (Tecan). CellTiter-Glo reagent was freshly reconstituted on the day of measurement and added in a 1:1 proportion to cell media. […] Cell line doubling time was determined by measuring cell viability every 24 hours over the course of 4 days, and fitting the cell viability to a two-parameter exponential curve. […] After the addition of cells, drugs were added using a pin tool (stainless steel pins with 50 nL slots, V&P Scientific) mounted onto a liquid handling robot (CyBio Well vario, Analytik Jena). For analysis of synergy, we used the synergyFinder package (2). Outliers due to pinning errors were excluded after manual examination.
Background: ATP-based viability assays read luminescence as a measure of living cells.

As for `C[C@@H]1COCCN1c1cc(-c2ccnn2C)c2ccnc(-c3ccn[nH]3)c2n1` [elimusertib], the EC50 was determined as 19.2 ± 3.8 nM in the assay with RB1^del G401 cells (read-out: half-maximal effective concentration, G401 RB1^del E1 clone, elimusertib for 4 days); 26.7 ± 3.2 nM in the assay on RB1^del G401 cells (read-out: half-maximal effective concentration, G401 RB1^del F2 clone, elimusertib for 4 days); 17.6 ± 1.6 nM in the assay on RB1^WT G401 cells.

(Values after patent publication US20250146080A1, “METHODS FOR OVERCOMING TAZEMETOSTAT-RESISTANCE IN CANCER PATIENTS” (MEMORIAL SLOAN-KETTERING CANCER CENTER, priority 2022, published 2025).)
